Measurements reported in the supplement of paper PMC10735217.
Counter-ions that a name gives are not always drawn. This is one part of the list. Repeats in this data set agree poorly, so a single value says little.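 In a drug-repurposing library screen, luminescence reads luciferase driven by eight TEAD-binding elements, stably integrated into human kidney-derived cells. Compounds scoring over five robust Z scores above the plate mean are called hits.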

Test system: HEK293A TEAD-LUC reporter
Experiment: TEAD-luciferase reporter activity (YAP activation), robust Z score vs plate; higher = stronger YAP/TEAD activation
Settings: 24 h

O=C(c1ccc(Cl)cc1)N1CCC(N2CCOCC2=O)CC1
TEAD-luciferase reporter activity (compound concentration: 200 nM): inactive: -1.87
TEAD-luciferase reporter activity (compound concentration: 10 uM): inactive: 0.536

CCn1nnc(C2=CCCN(C)C2)n1
TEAD-luciferase reporter activity (compound concentration: 200 nM): inactive: 1.94
TEAD-luciferase reporter activity (compound concentration: 2 uM): inactive: -1.13
TEAD-luciferase reporter activity (compound concentration: 10 uM): inactive: 0.176

CN(C)CC1CCc2ccccc2C1=O (stereo not drawn)
TEAD-luciferase reporter activity (compound concentration: 200 nM): inactive: 1.71
TEAD-luciferase reporter activity (compound concentration: 2 uM): inactive: -1.62
TEAD-luciferase reporter activity (compound concentration: 10 uM): inactive: -1.08

C[C@H]1C[C@@H]2[C@H]([C@@H](O)C[C@@]3(C)[C@H]2CC[C@]3(O)C(=O)COC(=O)CCC(=O)O)[C@@]2(C)C=CC(=O)C=C12 [Methylprednisolone sodium succinate]
TEAD-luciferase reporter activity (compound concentration: 200 nM): inactive: -0.994
TEAD-luciferase reporter activity (compound concentration: 2 uM): inactive: 1.13
TEAD-luciferase reporter activity (compound concentration: 10 uM): inactive: -0.329

CCCCC1CCc2cc(O)cc3c(CCN4CCN(c5cc(C)ccn5)CC4)c(C)n1c23 (stereo not drawn)
TEAD-luciferase reporter activity (compound concentration: 200 nM): inactive: -1.06
TEAD-luciferase reporter activity (compound concentration: 2 uM): inactive: 1.27
TEAD-luciferase reporter activity (compound concentration: 10 uM): inactive: 1.11

NS(=O)(=O)OC[C@@H]1C[C@@H](n2ccc3c(N[C@H]4CCc5ccccc54)ncnc32)C[C@@H]1O [Pevonedistat]
TEAD-luciferase reporter activity (compound concentration: 200 nM): inactive: 1.38
TEAD-luciferase reporter activity (compound concentration: 2 uM): active: 9.31
TEAD-luciferase reporter activity (compound concentration: 10 uM): active: 6.57

NS(=O)(=O)OC[C@@H]1C[C@@H](n2ccc3c(N[C@H]4CCc5ccccc54)ncnc32)C[C@@H]1O
TEAD-luciferase reporter activity (compound concentration: 2 uM): active: 7.33

NCCNCCNCCN [Trientine hydrochloride]
TEAD-luciferase reporter activity (compound concentration: 200 nM): inactive: -0.575
TEAD-luciferase reporter activity (compound concentration: 2 uM): inactive: 1.97
TEAD-luciferase reporter activity (compound concentration: 10 uM): inactive: 1.2

CN1CC[C@H](c2c(O)cc(O)c3c(=O)cc(-c4ccccc4Cl)oc23)[C@H](O)C1 [Flavopiridol]
TEAD-luciferase reporter activity (compound concentration: 200 nM): inactive: -1.25
TEAD-luciferase reporter activity (compound concentration: 10 uM): inactive: 0.207

CN1CC[C@H](c2c(O)cc(O)c3c(=O)cc(-c4ccccc4Cl)oc23)[C@H](O)C1 [alvocidib]
TEAD-luciferase reporter activity (compound concentration: 2 uM): inactive: -2.69

Cn1c(-c2cccnc2)c(CCCCCC(=O)O)c2cc(Cl)ccc21
TEAD-luciferase reporter activity (compound concentration: 200 nM): inactive: 1.13
TEAD-luciferase reporter activity (compound concentration: 2 uM): inactive: 0.0152
TEAD-luciferase reporter activity (compound concentration: 10 uM): inactive: 0.886

OC(CCN1CCCC1)(c1ccccc1)C1CCCCC1 (stereo not drawn)
TEAD-luciferase reporter activity (compound concentration: 200 nM): inactive: -1.27
TEAD-luciferase reporter activity (compound concentration: 10 uM): inactive: 0.364

OC(CCN1CCCC1)(c1ccccc1)C1CCCCC1 (stereo not drawn) [Procyclidine hydrochloride]
TEAD-luciferase reporter activity (compound concentration: 2 uM): inactive: -0.787

COc1c(O[C@@H]2O[C@H](CO)[C@@H](O)[C@H](O)[C@H]2O)cc2c(c1OC)-c1ccc(SC)c(=O)cc1[C@@H](NC(C)=O)CC2 [thiocolchicoside]
TEAD-luciferase reporter activity (compound concentration: 200 nM): inactive: -2.54
TEAD-luciferase reporter activity (compound concentration: 2 uM): inactive: 0.788
TEAD-luciferase reporter activity (compound concentration: 10 uM): inactive: -2.13

CS(=O)(=O)Nc1ccc([N+](=O)[O-])cc1OC1CCCCC1
TEAD-luciferase reporter activity (compound concentration: 200 nM): inactive: 0.876
TEAD-luciferase reporter activity (compound concentration: 2 uM): inactive: 0.339
TEAD-luciferase reporter activity (compound concentration: 10 uM): inactive: 0.878

COc1cccc2c1C(=O)c1c(O)c3c(c(O)c1C2=O)CC(O)(C(=O)CO)CC3OC1CC(N)C(O)C(C)O1 (stereo not drawn) [Doxorubicin]
TEAD-luciferase reporter activity (compound concentration: 200 nM): inactive: -0.638
TEAD-luciferase reporter activity (compound concentration: 2 uM): inactive: 0.499
TEAD-luciferase reporter activity (compound concentration: 10 uM): inactive: -0.469

N#CC1CCN(C(=O)C2CN(c3ccc(F)cc3)C(=O)N2)CC1 (stereo not drawn)
TEAD-luciferase reporter activity (compound concentration: 200 nM): inactive: -2
TEAD-luciferase reporter activity (compound concentration: 10 uM): inactive: 0.71

CCCCCC/C=C\CCCCCCCCCC1=CC(=O)C=C(OC)C1=O
TEAD-luciferase reporter activity (compound concentration: 200 nM): inactive: -1.12
TEAD-luciferase reporter activity (compound concentration: 2 uM): inactive: 0.161
TEAD-luciferase reporter activity (compound concentration: 10 uM): inactive: -0.234

CCc1nn(C2CCCC2)c2c1CCn1c(-c3cccs3)nnc1-2
TEAD-luciferase reporter activity (compound concentration: 200 nM): inactive: -0.708
TEAD-luciferase reporter activity (compound concentration: 2 uM): inactive: -0.91
TEAD-luciferase reporter activity (compound concentration: 10 uM): inactive: 0.506

COc1cc(C(=O)OC(COCCC23C[C@H]4C[C@@H](C2)C[C@@H](C3)C4)CN2CCOCC2)cc(OC)c1OC (stereo partly drawn)
TEAD-luciferase reporter activity (compound concentration: 200 nM): inactive: -0.739
TEAD-luciferase reporter activity (compound concentration: 2 uM): inactive: -1.17
TEAD-luciferase reporter activity (compound concentration: 10 uM): inactive: 4.17

CC(C)(C)c1cnc(CSc2cnc(NC(=O)C3CCNCC3)s2)o1
TEAD-luciferase reporter activity (compound concentration: 200 nM): inactive: 0.174
TEAD-luciferase reporter activity (compound concentration: 2 uM): inactive: -2.81
TEAD-luciferase reporter activity (compound concentration: 10 uM): inactive: 0.978

Cc1ccc(C(=O)c2ccc(CC(=O)O)n2C)cc1 [tolmetin, Gilead]
TEAD-luciferase reporter activity (compound concentration: 200 nM): inactive: -1.22
TEAD-luciferase reporter activity (compound concentration: 2 uM): inactive: -2.52
TEAD-luciferase reporter activity (compound concentration: 10 uM): inactive: -1.59

O=c1c2ccccc2ncn1CCOCCOc1ccccc1F
TEAD-luciferase reporter activity (compound concentration: 200 nM): inactive: -0.454
TEAD-luciferase reporter activity (compound concentration: 2 uM): inactive: -1.01
TEAD-luciferase reporter activity (compound concentration: 10 uM): inactive: -1.06

C=C[C@]1(C)C[C@@H](OC(=O)CSC(C)(C)CNC(=O)[C@H](N)C(C)C)C2(C)[C@H](C)CCC3(CCC(=O)[C@H]32)[C@@H](C)[C@@H]1O (stereo partly drawn) [Valnemulin (Hydrochloride)]
TEAD-luciferase reporter activity (compound concentration: 200 nM): inactive: 0.935
TEAD-luciferase reporter activity (compound concentration: 2 uM): inactive: -0.525
TEAD-luciferase reporter activity (compound concentration: 10 uM): inactive: -0.765

C#CCN(Cc1ccc2nc(N)[nH]c(=O)c2c1)c1ccc(C(=O)N[C@@H](CCC(=O)O)C(=O)O)cc1
TEAD-luciferase reporter activity (compound concentration: 200 nM): inactive: 0.247
TEAD-luciferase reporter activity (compound concentration: 2 uM): inactive: -0.0592
TEAD-luciferase reporter activity (compound concentration: 10 uM): inactive: -0.957

OCC1OC(n2ncc3c(O)ncnc32)C(O)C1O (stereo not drawn) [Allopurinol riboside]
TEAD-luciferase reporter activity (compound concentration: 200 nM): inactive: -0.466
TEAD-luciferase reporter activity (compound concentration: 2 uM): inactive: -0.673
TEAD-luciferase reporter activity (compound concentration: 10 uM): inactive: 0.884

O=C(C1CCCC1)N1CCN(c2nc3ncccc3o2)CC1
TEAD-luciferase reporter activity (compound concentration: 200 nM): inactive: -1.13
TEAD-luciferase reporter activity (compound concentration: 10 uM): inactive: 2.76

CC[C@H]1OC(=O)[C@H](C)[C@@H](O)[C@H](C)[C@@H](O[C@@H]2O[C@H](C)CC(N(C)C(C)=O)[C@H]2O)[C@](C)(O)C[C@@H](C)[C@H](O)[C@H](C)[C@@H](O)[C@]1(C)O (stereo partly drawn)
TEAD-luciferase reporter activity (compound concentration: 200 nM): inactive: -0.287
TEAD-luciferase reporter activity (compound concentration: 2 uM): inactive: -0.802
TEAD-luciferase reporter activity (compound concentration: 10 uM): inactive: 0.382
